Measurements published in patent EP0665239A1 (CONSIGLIO NAZIONALE DELLE RICERCHE, priority 1994, dated 1995).
Some peptides are written in HELM: one residue between dots, names in brackets for other building blocks, links after the first $.

Columns and labels:
[1] = general procedure: Fmoc solid-phase peptide synthesis in flow; PepSyn KA; conditions: whole synthesis, HPLC peak area, scale 0.09 mmole
[2] = general procedure: Fmoc solid-phase peptide synthesis in flow; PepSyn KA resin; conditions: whole synthesis, HPLC peak area, scale of the general procedure 0.09 mmole (1 g resin)

Row | Substance | crude HPLC purity [1] | crude HPLC purity [2]
1 | PEPTIDE1{R.F.R.P.P.I.R.R.P.P.I.R.P.P.F.Y.P.P.F.R.P.P.I.R.P}$$$$V2.0 | 71% | 
2 | PEPTIDE1{R.R.I.R.P.R.P.P.R.L.P.R.P.R.P.R.P.L.P.F.P.R.P.G.P.R.P.I.P.R.P.L.P.F.P}$$$$V2.0 |  | about 66%
3 | PEPTIDE1{R.R.I.R.P.R.P.P.R.L.P.R.P.R.P.R.P.L.P.F.P.R.P}$$$$V2.0 | 78% | 
4 | PEPTIDE1{R.R.I.R.P.R.P.P.R.L.P.R.P.R.P.R.P.L}$$$$V2.0 | about 80% | 
